Measurements as given in doi:10.1101/2022.07.08.499339 (bioRxiv, 2022).
Results are given in words; binding and its absence hold for the method and conditions named. Some entries that bind do so weakly or less than the wild type.

Biological target: CeMIGA2_(long), C. elegans MIGA (106-496) (C. elegans) (UniProt Q21096)
Assay: crystal structure

B1: CeMIGA2_(long), C. elegans MIGA (106-496) (domain or fragment, UniProt Q21096 106-496, looked up)
chain: SMNPIEADITSGQELCTELRKTIEKVHHNLEMVKNRSSKDMERSIKIEGILKGLKQVEDEIVLLVPQMEDFRDDNMEFYSVSGGSGYAGSVRTGRSRTLSVLSDDSFRSAVEEFACDIDDIDFVSDAANLDKNELRFLDEGMQAALNGEVKYRKSRMEFCKCDSETDFAAKLYCVRQALTNALKDEHKRVWLAKCGRTLLADFIRHTKQDPVKFFNAYDEMLEYVSNDRNEEQLRQDVEGRGVCETGFYDVAIDFIILDAFEDLKSPPSAVYSVTKNYFMSMSMKYSTLNTIIWSIIKSKRQRLKNPDGFIAKFYNISETVMPAITLGFLGTDERLGELCQYFKEQVVQFVLDVFNTQKVCYRSLEEMSEDVWIVMRNRLEAVQTRMSNEL
binding: binds
